For experiment [1], the target named is CD69 (human) (UniProt Q07108). The experiment can be described thus: ELISA validation of phage display clones.
Experiment [2] addresses CD69 (human) (UniProt Q07108). The experiment can be described thus: scFv identified by phage display in a human naive Fab phage library.
Experiment [3] has as its target T1, CD84 (human) (UniProt Q9UIB8).
T1 sequence (looked up): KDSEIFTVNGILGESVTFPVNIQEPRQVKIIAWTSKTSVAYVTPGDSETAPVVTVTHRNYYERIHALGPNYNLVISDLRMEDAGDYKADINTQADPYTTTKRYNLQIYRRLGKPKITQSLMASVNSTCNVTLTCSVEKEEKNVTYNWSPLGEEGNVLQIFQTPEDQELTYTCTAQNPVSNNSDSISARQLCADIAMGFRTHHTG
The experiment can be described thus: ELISA validation of phage display clones.

Sequences of proteins named here, by UniProt entry; tags and fusion partners are left off. Residues count along the entry.
UniProt Q07108, residues 62-199: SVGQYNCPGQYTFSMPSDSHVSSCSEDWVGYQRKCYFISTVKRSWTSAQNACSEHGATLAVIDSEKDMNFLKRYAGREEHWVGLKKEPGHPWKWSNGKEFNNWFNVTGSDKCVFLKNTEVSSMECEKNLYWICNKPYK

In experiment [4] the target is T1, CD84 (human). The experiment can be described thus: scFv identified by phage display in a human naive Fab phage library.

Results are given in words; binding and its absence hold for the method and conditions named. Some results given as binding are weak or reduced against the parent protein; the word gives no strength.

B1: F1 scFv (scFv)
scFv: QVQLQQSGPGLVKPSQTLSLTCAISGDSVFSNSASWNWIRQSPSRGLEWLGKTEYRSKWFDEYAPSVKGRIAIRPDTSKNQVSLQLNSVTPEDTAVYYCVRDSYNGYDFDGFDIWGQGTLVTVSSGGGGSGGGGSGGGGSGGGGSQSVLTQPPSVSAAPGQQVIISCSGSSSNVGNNYVAWYQQVPGAAPRLLIYDNYKRPSGIPDRFSGSKSGTSATLGITGLQSGDEADYYCGSWDSSLSAEVFGGGTKLTAL
Take B1: the binding result with CD69 (human) [1] and in the experiment with CD69 (human) [2] was “binds” throughout.

B2: B8 scFv (scFv)
scFv: QVQLQQSGPGLVKPSQTLSLTCAISGDSVSSNSASWNWIRQSPSRGLEWLGKVEYRSKWYDEYAPSVKSRIAIRPDTSKNQVSLHLISVTPDDTAVYYCARDSYNGHAFDGFDVWGQGTMVTVSSGGGGSGGGGSGGGGSGGGGSQSVLTQPPSLSAAPGQRVTISCSGTTSNIANNFVSWYQQLSGSAPKLLINDNNKRPSGIPDRFSGSKSGASATLAITGLQTEDEADYYCGVWDNSLNAEVFGGGTKVTVL
B2: the binding result with CD84 (human) [3] and with CD84 (human) [4] was “binds” throughout.

B3: H3 scFv (scFv)
scFv: QVQLQQSGPGLVKPSQTLSLTCDISGDSVFSNTASWNWIRQSPSRGLEWLGKTEYRSQWLHEYAPSVRSRIAIRPDTSKNQVSLQLSFVTPEDTAVYYCVRDSYNGYAFDGFDTWGQGTLVTVSSGGGGSGGGGSGGGGSGGGGSQSVVTQPPSVSAAPGQKVTISCSGRNSNIANNFVSWYRQLPGTAPKLLIYDNNKRPSGIPDRFSGSKSGTSATLAITGLQTGDEADYYCESWDSSLTAEVFGTGTKVTVL
For B3, the binding entry in the experiment with CD69 (human) [1] and with CD69 (human) [2] was “binds” each time.

B4: C1 scFv (scFv)
scFv: QVQLQQSGPGLVKPSQTLSLTCAISGDSVSSNSASWNWIRQSPSRGLEWLGKTEYRSKWYYEFAPSVKSRITITPDTSKNQFSLQLNSVTPEDTAVYYCVRDSYNGYDFDGFDIWGQGTLVTVSSGGGGSGGGGSGGGGSGGGGSQSVLTQPPSVSAAPGQKVTISCSGSSSNIGSNYVAWYQQLPGTAPKLLIYDTNKRPSGIPDRFSGSKSGTSATLGITGLQTGDEADYYCGTWDSSLSAEVFGTGTKVTVL
As for B4, the binding entry with CD69 (human) [1] was “binds”.

B5: F2 scFv (scFv)
scFv: QVQLQQSGPGLVKPSQTLSLTCAISGDSVFSNSASWNWIRQSPSRGLEWLGKTEYRSKWFDEYAPSVKGRIAIRPDTSKNQVSLQLNSVTPEDTAVYYCVRDSYNGYDFDGFDIWGQGTLVTVSSGGGGSGGGGSGGGGSGGGGSQSVLTQPPSVSAAPGQKVTISCSGGSSNIEKNYVSWYQQLPGTAPKLLIYDTNKRPSGIPDRFSGSKSGTSATLGITGLQTGDEADYYCGAWDNILNSEMFGGGTKLTVL
Take B5: the binding entry in the experiment with CD69 (human) [1] is recorded as “binds”.

B6: G1 scFv (scFv)
scFv: QVQLQQSGPGLVKPSQTLSLTCAISGDSVFSTTASWNWIRQSPSRGLEWLGKTEYRSKWFDEYAPSVKGRIAIRPDTSRNQVSLQLNSMTPEDTAVYFCVRDSYNGYDFDGFDIWGQGTTVTVSSGGGGSGGGGSGGGGSGGGGSQSVVTQPPSVSAAPGQKVTISCSGSSSNIGNNYVSWYQQLPGTAPKLLIYDNNKRPSGIPDRFSGSKSGTSATLGITGLQTGDEADYYCGTWDSSLSAEMFGGGTKVTVL
For the molecule B6, the binding result with CD69 (human) [1] and with CD69 (human) [2] was “binds” in each case.

B7: H2 scFv (scFv)
scFv: QVQLQQSGPGLVKPSQTLSLTCAISGDSVFSNSASWNWIRQSPSRGLEWLGKTEYRSKWFDEYAPSVKGRIAIRPDTSKNQVSLQLNSVTPEDTAVYYCVRDSYNGYDFDGFDIWGQGTLVTVSSGGGGSGGGGSGGGGSGGGGSQSVVTQPPSVSAAPGQKVTISCSGSSSNIGNNYVSWYQQLPGTAPKLLIYDNNKRPSGIPDRFSGSKSGTSATLGITGLQTGDEADYYCGTWDSSLSAEVFGGGTKLTVL
Turning to B7, the binding entry with CD69 (human) [1] and with CD69 (human) [2] was “binds” in each case.

B8: C2 scFv (scFv)
scFv: QVQLQQSGPGLVKPSQTLSLTCAISGDSVSSNSASWNWIRQSPSRGLEWLGKVEYRSKWYDEYAPSVKSRIAIRPDTSKNQVSLHLISVTPDDTAVYYCARDSYNGHAFDGFDVWGQGTLVTVSSGGGGSGGGGSGGGGSGGGGSQSVLTQPPSVSAAPGQKVTISCSGSSSNIGDNLVSWYQQLPGTAPKLLIYDNNKRPSGIPDRFSGSKSGTSATLDITGLQTGDEADYYCESWDNNLTAEVFGTGTKVTVL
In the case of B8, the binding result in the experiment with CD69 (human) [1] and with CD69 (human) [2] was “binds” in each case.

B9: F12 scFv (scFv)
scFv: QVQLQQSGPGLVKPSQTLSLTCAISGDSVSSNSASWNWIRQSPSRGLEWLGKVEYRSKWYDEYAPSVKSRIAIRPDTSKNQVSLHLISVTPDDTAVYYCARDSYNGHAFDGFDVWGQGTMVTVSSGGGGSGGGGSGGGGSGGGGSQSVVTQPPSVSAAPGQKVTISCSGSSSNIGNNYVSWYQQLPGTAPKLLIYDNNKRPSGIPDRFSGSKSGTSATLGITGLQTGDEADYYCGTWDSSLSAEVFGGGTKVTVL
Consider B9, for which the binding entry with CD84 (human) [3] and with CD84 (human) [4] was “binds” throughout.

B10: A1 scFv (scFv)
scFv: QVQLQQSGPGLVQPSRTLSLTCAISGDSISSNTASWNWIRQSPSRGLEWVGKTEYRSGWFFEYAPSVGGRVNISPDTSKNQFSLQLNSVTPEDTAVYFCARDSYNDYDNDGFDIWGQGTLVTVSSGGGGSGGGGSGGGGSGGGGSQSVLTQPPSVSAAPGQKVTISCSGSSSNIGSNYVAWYQQLPGTAPKLLIYDTNKRPSGIPDRFSGSKSGTSATLGITGLQTGDEADYYCGTWDSSLSAEVFGTGTKVTVL
Take B10: the binding entry in the experiment with CD69 (human) [1] and with CD69 (human) [2] was “binds” throughout.

The values above are taken from patent US20260250409A1.
